Data source: PubChem BioAssay AID743454 (Peter MacCallum Cancer Centre, 2014)

Aim: 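Search for knock-downs that restore vorinostat killing in resistant colon cancer cells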 (primary screen)
Cells: human HCT116-VR colon cancer cells, selected for vorinostat resistance
Reagents: siRNA pool against human genes, 40 nM siRNA pool
Time to read-out: vorinostat for 24 h, read-out about 72 h after transfection
Challenge: vorinostat at 2.5 µM final
Read-out: 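Cell viability by CellTiter-Fluor and caspase 3/7 activity by luminescence, each scaled to mock wells per plate, duplicates averaged, then robust z-scored over all plates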
Reading the numbers: viability robust z-score: higher = more viable cells than screen typical; caspase robust z-score: higher = more caspase 3/7 activity than screen typical
Active means: 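a knock-down is a hit when classed RV1 or RV2 for lowered viability, or CA1 or CA2 for caspase activation; those lethal without drug were dropped; hits were retested singly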
Shown is a random part of about 18,000 reagents tested. 450 of all reagents (2.5%) count as active. 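Single biological run; no consistent viability z cut-off exists, so the class columns, not z-scores, define the calls.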 Reagent sequences are not shown.

gene	viability hit class	caspase hit class	viability robust z-score	caspase robust z-score	activity call
HEATR6 (GeneID 63897)	no change	no change	0.68	-0.55	inactive
GPHB5 (GeneID 122876)	no change	no change	-0.39	-0.56	inactive
RHOF (GeneID 54509)	no change	no change	0.86	0.02	inactive
PSMD14 (GeneID 10213)	no change	no change	-3.87	2.03	inactive
TOPBP1 (GeneID 11073)	no change	no change	-0.02	4.77	inactive
THOC3 (GeneID 84321)	no change	no change	-0.42	0.86	inactive
NDUFC1 (GeneID 4717)	no change	no change	0.62	-0.92	inactive
C10orf88 (GeneID 80007)	no change	no change	-0.01	-0.62	inactive
PTN (GeneID 5764)	no change	no change	-0.48	-0.38	inactive
PTCH1 (GeneID 5727)	no change	no change	-0.06	2.69	inactive
RPL13 (GeneID 6137)	no change	no change	-2.96	-0.98	inactive
KBTBD11 (GeneID 9920)	no change	no change	1.14	0.88	inactive
CHST14 (GeneID 113189)	no change	no change	0.2	-0.64	inactive
MCM9 (GeneID 254394)	no change	no change	0.92	-0.27	inactive
ENTPD7 (GeneID 57089)	no change	no change	0.36	-0.23	inactive
HERC1 (GeneID 8925)	no change	no change	-0.9	-1.04	inactive
KCNQ3 (GeneID 3786)	no change	no change	-1.34	2.95	inactive
BOLL (GeneID 66037)	no change	no change	0.46	-1.42	inactive
ZSCAN31 (GeneID 64288)	no change	no change	0.86	-0.71	inactive
ATP10D (GeneID 57205)	no change	no change	-1.26	-1.03	inactive
LECT2 (GeneID 3950)	no change	no change	1	-1	inactive

Next part (2 carried over from the part before).
gene	viability hit class	caspase hit class	viability robust z-score	caspase robust z-score	activity call
ATP10D (GeneID 57205)	no change	no change	-1.26	-1.03	inactive
LECT2 (GeneID 3950)	no change	no change	1	-1	inactive
NDUFB4 (GeneID 4710)	no change	no change	0.8	-0.49	inactive
TMEM131L (GeneID 23240)	no change	no change	0.71	0.08	inactive
UROC1 (GeneID 131669)	no change	no change	-2.54	4.17	inactive
SIAH1 (GeneID 6477)	no change	no change	-2.55	-0.06	inactive
AMIGO3 (GeneID 386724)	no change	no change	1.56	-0.76	inactive
CDC123 (GeneID 8872)	no change	no change	-0.5	0.04	inactive
VCPIP1 (GeneID 80124)	no change	no change	-0.42	-0.84	inactive
SH3YL1 (GeneID 26751)	no change	no change	0.34	0.18	inactive
ARID1B (GeneID 57492)	no change	no change	-0.84	1.22	inactive
BAZ1B (GeneID 9031)	no change	no change	0.63	0.04	inactive
GYPC (GeneID 2995)	no change	no change	-0.73	-0.84	inactive
SAXO1 (GeneID 158297)	no change	no change	1.61	-0.31	inactive
RAB3B (GeneID 5865)	no change	no change	-0.66	0.18	inactive
OR10Z1 (GeneID 128368)	no change	no change	0.45	0.44	inactive
GLS (GeneID 2744)	no change	no change	-0.29	0.45	inactive
PIGG (GeneID 54872)	no change	no change	1.52	-0.49	inactive
KIF17 (GeneID 57576)	no change	no change	0.81	0.82	inactive
NAGPA (GeneID 51172)	no change	no change	-0.48	0.34	inactive
